Values of other authors, collected in patent US20050130925A1, “Method and composition for enhancing PGE1 production in vascular endothelial and smooth muscle cells” (The Board of Regents of the University of Texas System, priority 2003, published 2005).
At least one structure is not confirmed: it was looked up by name or label, or the drawing left a doubt.

Settings: cited from earlier work

Structure (SMILES): CCCCC[C@H](O)/C=C/[C@H]1[C@H](O)CC(=O)[C@@H]1CCCCCCC(=O)O [PGE1, Prostaglandin E1]
- some beneficial biologic effects, times stronger than those of PGE2: ~20 times
